# Reference: the supplement of paper PMC8728848
# This is one part of the list.
# B1: SJCP1084 (Schistosoma japonicum) (protein)
# chain: MRIINLVIISTALLLINLLQTKSQANGEDTKNGTPDDPGLTKSTELKVEVQALLKDKKTNMRVKWNENLLDNTKPEYHNLRDEACELLLQIVRSVVPLSQDDGECKDVTFTKYVVGTKDGAVNVKLTITFKDSVAINQKPMDLKLKLENDFKNLQSESTLKATKPTFTVKVEKRLIPISKPQTTPPTTAKNDASKENVGDIGGEDSTVPTAAPATAASANEEKDEGDKDNKDSQHPNVLTSNVNDRNLIIALVALMILAIGVALTAAVKQR
# Experiments:
# [1] = target: Neu5Gc(a2-8)Neu5Gc(a2-6)Gal(b1-4)GlcNAc; assay: glycan array binding signal (z-score within array); higher = stronger binding; conditions: glycan notation: IUPAC condensed, linker removed
# Outline: (§1)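 The binding signal is a Z-score computed within each array. Data were drawn from 3228 arrays in the Consortium for Functional Glycomics database, restricted to those with a known protein sequence. Scores were averaged over arrays of the same protein sequence at different concentrations or buffers, and over linkers, and negative values can be taken as non-binding.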
# [2] = target: Neu5Gc(b2-6)Gal(b1-4)GlcNAc; assay: as above; conditions: glycan notation: IUPAC condensed, linker removed
# Outline: as §1
binder,measurement,setting,value
B1,glycan array binding signal (z-score),[1],-0.143
same,glycan array binding signal (z-score),[2],-0.08
